Reference: article PMC7607384
No constants are given. Whether binding was seen depends on the method and setting. In cells and extracts the contact can be indirect. Some entries that bind do so weakly or less than the wild type. Tags and fused reporters may be left off the sequences shown.

How the values were obtained:
Flag-MTG16 = target: T1, Flag-MTG16 (UniProt O75081); assay: co-IP; HEK293T lysates (150 mM NaCl, 30 mM Tris pH 7.5, 1 mM EDTA, 1% Triton X-100, 10% glycerol, 0.5 mM DTT), precleared with IgG-agarose; Flag complexes precipitated with anti-Flag-M2 affinity beads at 4°C overnight; western blot
T1 sequence: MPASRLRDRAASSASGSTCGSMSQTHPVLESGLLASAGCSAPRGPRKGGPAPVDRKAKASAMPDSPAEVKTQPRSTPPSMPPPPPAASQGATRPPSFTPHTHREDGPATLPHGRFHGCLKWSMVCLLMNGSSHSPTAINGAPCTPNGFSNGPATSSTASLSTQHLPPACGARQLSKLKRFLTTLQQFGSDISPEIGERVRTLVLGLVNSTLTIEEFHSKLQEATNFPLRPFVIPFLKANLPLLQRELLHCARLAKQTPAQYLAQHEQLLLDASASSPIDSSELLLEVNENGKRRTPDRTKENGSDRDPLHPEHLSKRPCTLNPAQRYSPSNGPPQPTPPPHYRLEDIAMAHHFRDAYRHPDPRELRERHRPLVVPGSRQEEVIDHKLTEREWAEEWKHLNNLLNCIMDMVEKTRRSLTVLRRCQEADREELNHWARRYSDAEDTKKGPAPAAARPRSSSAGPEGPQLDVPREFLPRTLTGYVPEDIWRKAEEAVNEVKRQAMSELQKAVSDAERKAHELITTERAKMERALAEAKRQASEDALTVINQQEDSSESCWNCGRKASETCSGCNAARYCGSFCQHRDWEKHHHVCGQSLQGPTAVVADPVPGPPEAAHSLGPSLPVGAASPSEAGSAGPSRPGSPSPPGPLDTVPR

Flag-MTG8 = target: T2, Flag-MTG8 (UniProt Q06455); assay: as above
T2 sequence: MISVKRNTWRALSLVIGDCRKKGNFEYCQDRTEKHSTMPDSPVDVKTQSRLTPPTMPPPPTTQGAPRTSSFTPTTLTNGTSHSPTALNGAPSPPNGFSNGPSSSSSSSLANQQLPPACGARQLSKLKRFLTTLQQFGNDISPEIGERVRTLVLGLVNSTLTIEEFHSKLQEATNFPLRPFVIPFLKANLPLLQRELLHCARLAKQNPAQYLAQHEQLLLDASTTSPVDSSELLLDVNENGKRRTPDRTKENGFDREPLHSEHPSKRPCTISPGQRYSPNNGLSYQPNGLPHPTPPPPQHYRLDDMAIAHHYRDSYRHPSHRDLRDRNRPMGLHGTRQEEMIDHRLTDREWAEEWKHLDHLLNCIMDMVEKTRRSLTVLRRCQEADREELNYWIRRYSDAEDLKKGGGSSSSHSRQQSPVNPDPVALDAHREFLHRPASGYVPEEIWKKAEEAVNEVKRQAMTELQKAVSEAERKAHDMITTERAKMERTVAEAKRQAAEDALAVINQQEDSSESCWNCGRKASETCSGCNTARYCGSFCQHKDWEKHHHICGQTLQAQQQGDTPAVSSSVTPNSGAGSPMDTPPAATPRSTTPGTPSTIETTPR

B1: ATOH1 (protein, UniProt Q92858 1-354)
chain: MSRLLHAEEWAEVKELGDHHRQPQPHHLPQPPPPPQPPATLQAREHPVYPPELSLLDSTDPRAWLAPTLQGICTARAAQYLLHSPELGASEAAAPRDEVDGRGELVRRSSGGASSSKSPGPVKVREQLCKLKGGVVVDELGCSRQRAPSSKQVNGVQKQRRLAANARERRRMHGLNHAFDQLRNVIPSFNNDKKLSKYETLQMAQIYINALSELLQTPSGGEQPPPPPASCKSDHHHLRTAASYEGGAGNATAAGAQQASGGSQRPTPPGSCRTRFSAPASAGGYSVQLDALHFSTFEDSALTAMMAQKNLSPSLPGSILQPVQEENSKTSPRSHRSDGEFSPHSHYSDSDEAS
- binding (Flag-MTG16): binds
- binding (Flag-MTG8): binds
